Laboratory results as given in the supplement of paper PMC10060354, “Discovery of a small molecule ligand of FRS2 that inhibits invasion and tumor growth” (Cellular Oncology, 2022).
Single values are uncertain, as repeats are few or missing.

Chains of the proteins cited; added tags and fusions are not shown. Lines headed by an entry give the natural chain unless they say otherwise; changes in a name come on top.
UniProt Q9Y6M5: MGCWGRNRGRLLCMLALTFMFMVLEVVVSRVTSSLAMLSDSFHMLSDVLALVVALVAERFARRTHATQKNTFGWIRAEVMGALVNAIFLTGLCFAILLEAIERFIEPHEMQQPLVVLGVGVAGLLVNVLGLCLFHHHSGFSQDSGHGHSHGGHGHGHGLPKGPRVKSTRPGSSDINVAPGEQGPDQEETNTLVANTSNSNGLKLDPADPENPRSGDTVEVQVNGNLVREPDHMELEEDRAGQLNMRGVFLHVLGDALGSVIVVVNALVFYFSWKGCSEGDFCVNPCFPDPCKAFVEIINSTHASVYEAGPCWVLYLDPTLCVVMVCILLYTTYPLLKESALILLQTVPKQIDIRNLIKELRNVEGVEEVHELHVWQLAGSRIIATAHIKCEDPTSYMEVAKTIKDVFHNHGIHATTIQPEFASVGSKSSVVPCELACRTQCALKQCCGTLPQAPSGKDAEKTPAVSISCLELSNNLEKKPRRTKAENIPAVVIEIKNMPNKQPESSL
UniProt P13693: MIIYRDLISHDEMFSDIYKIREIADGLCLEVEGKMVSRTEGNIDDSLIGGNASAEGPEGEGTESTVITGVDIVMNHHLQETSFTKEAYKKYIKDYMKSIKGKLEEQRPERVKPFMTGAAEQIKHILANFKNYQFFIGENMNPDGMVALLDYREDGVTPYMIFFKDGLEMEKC
UniProt Q15022: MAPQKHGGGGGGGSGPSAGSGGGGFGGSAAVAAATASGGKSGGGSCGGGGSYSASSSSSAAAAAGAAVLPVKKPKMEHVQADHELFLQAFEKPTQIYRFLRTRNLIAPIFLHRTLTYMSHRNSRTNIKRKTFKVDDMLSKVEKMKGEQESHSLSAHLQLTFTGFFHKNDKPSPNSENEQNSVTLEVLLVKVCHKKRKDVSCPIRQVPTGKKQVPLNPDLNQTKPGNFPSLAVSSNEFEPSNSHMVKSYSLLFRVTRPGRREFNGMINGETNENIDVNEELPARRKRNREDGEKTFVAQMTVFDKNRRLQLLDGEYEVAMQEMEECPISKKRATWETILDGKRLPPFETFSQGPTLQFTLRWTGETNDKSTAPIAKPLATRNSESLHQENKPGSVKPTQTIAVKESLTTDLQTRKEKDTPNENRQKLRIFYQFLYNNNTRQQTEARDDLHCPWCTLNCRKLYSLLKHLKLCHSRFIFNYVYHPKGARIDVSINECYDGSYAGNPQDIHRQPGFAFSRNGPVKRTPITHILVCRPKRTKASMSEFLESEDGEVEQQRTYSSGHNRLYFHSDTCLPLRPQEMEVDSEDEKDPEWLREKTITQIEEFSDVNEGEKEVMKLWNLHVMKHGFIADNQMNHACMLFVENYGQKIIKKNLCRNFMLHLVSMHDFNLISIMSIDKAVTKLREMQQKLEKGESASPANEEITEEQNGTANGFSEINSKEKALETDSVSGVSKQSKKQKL
UniProt O96011: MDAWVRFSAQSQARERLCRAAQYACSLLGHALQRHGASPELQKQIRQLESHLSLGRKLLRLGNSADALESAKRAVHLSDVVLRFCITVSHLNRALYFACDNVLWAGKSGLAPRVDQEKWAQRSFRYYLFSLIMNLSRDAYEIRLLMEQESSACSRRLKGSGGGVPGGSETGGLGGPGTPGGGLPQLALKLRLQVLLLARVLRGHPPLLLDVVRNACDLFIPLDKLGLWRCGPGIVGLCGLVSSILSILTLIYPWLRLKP
UniProt Q9C0C9: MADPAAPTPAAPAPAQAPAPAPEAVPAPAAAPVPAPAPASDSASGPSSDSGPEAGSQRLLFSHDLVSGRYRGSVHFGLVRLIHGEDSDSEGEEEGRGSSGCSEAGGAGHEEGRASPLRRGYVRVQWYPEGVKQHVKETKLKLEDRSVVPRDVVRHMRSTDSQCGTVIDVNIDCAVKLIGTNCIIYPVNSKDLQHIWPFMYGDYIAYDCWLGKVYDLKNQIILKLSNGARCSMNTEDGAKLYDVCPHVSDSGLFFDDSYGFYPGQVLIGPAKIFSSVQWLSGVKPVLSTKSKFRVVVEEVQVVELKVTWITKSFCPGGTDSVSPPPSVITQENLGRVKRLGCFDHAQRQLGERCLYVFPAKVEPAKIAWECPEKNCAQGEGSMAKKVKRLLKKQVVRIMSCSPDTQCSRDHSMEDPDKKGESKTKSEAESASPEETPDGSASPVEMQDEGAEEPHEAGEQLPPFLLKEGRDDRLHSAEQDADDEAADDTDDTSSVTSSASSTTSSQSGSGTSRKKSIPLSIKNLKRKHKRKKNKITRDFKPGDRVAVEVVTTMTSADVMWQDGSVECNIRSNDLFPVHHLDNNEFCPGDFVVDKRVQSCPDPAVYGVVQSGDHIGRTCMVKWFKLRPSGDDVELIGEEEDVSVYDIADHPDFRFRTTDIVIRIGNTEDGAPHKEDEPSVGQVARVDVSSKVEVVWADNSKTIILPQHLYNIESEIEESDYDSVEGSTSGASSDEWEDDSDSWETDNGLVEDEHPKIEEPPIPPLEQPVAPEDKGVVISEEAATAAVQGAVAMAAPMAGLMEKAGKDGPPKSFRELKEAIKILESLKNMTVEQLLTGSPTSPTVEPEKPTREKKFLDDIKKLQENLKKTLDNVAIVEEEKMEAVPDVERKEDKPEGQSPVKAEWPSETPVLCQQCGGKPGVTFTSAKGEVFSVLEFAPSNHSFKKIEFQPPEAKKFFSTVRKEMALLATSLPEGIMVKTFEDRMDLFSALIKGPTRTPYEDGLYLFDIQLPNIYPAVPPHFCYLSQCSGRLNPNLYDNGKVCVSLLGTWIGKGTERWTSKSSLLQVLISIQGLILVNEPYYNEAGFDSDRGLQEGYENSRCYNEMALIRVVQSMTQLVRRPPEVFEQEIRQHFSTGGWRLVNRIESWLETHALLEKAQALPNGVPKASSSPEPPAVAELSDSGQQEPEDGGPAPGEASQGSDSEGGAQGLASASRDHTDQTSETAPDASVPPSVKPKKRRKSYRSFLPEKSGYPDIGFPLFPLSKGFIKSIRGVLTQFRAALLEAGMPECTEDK
UniProt Q9NWB6: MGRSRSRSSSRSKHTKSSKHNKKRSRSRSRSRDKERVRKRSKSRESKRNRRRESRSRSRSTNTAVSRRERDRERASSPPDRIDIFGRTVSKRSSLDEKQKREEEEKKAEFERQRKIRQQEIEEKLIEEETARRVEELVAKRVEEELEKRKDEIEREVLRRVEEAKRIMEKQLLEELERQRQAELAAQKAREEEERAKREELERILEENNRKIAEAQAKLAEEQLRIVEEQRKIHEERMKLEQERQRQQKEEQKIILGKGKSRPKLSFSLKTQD
UniProt P49257: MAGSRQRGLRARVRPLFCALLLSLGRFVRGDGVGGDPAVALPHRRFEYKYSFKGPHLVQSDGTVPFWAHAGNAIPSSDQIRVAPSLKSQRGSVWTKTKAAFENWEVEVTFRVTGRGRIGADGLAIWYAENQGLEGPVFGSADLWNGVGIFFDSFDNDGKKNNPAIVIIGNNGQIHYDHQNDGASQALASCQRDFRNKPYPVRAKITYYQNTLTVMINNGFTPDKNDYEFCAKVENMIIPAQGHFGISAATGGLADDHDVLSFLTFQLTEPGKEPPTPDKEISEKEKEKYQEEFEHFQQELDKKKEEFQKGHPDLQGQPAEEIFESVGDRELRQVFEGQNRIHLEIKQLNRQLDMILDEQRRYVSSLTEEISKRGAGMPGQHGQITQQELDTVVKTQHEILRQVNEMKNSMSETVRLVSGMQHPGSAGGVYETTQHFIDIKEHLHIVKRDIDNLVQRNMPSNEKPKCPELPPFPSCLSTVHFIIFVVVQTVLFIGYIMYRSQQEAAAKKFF
UniProt Q9Y3Y2: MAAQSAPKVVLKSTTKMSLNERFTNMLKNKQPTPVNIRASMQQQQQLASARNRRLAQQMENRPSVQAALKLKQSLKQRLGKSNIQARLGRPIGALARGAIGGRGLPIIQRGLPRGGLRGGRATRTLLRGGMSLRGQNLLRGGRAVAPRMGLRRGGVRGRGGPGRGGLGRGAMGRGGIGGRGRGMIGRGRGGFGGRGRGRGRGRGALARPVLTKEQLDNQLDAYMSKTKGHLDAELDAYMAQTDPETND
UniProt P21675, whole entry: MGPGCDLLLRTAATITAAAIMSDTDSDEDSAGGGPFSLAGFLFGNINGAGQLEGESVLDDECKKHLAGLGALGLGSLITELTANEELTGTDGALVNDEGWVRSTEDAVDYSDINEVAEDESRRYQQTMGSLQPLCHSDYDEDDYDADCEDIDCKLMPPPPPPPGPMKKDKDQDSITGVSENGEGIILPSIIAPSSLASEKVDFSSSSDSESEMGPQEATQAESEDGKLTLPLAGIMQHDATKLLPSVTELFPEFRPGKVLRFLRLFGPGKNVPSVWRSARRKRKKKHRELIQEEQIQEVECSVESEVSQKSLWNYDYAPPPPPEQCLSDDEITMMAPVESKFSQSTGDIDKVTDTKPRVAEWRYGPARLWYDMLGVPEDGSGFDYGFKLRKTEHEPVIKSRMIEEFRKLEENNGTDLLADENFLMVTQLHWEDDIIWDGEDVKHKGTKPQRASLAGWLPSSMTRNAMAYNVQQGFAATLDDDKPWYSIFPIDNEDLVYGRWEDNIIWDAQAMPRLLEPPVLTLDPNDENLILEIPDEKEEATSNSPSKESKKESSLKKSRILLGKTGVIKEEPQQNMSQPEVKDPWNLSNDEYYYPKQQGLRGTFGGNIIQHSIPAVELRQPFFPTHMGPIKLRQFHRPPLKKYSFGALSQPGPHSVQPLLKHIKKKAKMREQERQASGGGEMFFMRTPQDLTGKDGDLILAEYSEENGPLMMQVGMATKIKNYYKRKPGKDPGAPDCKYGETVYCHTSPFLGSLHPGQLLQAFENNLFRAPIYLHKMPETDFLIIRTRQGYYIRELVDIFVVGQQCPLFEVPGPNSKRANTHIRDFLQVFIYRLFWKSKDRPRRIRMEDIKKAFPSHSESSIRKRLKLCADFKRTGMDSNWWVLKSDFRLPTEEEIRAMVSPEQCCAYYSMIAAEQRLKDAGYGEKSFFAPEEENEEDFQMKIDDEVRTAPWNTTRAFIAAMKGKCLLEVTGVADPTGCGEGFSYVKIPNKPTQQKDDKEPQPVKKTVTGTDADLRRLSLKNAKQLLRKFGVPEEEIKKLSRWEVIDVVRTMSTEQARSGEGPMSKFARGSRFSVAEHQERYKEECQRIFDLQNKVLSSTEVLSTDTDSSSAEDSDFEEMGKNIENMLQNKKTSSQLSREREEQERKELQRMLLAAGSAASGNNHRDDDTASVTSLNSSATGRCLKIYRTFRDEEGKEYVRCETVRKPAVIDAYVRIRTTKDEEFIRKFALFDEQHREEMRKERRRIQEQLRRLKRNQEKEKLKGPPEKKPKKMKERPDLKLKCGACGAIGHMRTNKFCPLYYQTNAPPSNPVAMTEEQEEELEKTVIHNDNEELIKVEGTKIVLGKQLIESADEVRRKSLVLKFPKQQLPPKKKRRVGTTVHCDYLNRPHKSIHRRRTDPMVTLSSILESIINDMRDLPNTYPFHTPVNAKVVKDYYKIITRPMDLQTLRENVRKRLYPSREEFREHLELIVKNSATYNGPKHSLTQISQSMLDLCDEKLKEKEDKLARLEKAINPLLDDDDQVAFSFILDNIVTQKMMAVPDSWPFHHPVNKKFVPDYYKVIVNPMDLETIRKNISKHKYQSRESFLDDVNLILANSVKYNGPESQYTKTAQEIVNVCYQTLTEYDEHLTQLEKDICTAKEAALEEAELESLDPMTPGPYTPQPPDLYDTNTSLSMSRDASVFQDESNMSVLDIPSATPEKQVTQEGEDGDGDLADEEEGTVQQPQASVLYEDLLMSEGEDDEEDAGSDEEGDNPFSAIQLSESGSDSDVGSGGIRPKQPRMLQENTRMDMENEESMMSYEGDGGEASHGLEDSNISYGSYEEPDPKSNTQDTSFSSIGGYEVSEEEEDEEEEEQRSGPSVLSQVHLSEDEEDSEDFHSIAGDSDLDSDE
UniProt Q9BTA9: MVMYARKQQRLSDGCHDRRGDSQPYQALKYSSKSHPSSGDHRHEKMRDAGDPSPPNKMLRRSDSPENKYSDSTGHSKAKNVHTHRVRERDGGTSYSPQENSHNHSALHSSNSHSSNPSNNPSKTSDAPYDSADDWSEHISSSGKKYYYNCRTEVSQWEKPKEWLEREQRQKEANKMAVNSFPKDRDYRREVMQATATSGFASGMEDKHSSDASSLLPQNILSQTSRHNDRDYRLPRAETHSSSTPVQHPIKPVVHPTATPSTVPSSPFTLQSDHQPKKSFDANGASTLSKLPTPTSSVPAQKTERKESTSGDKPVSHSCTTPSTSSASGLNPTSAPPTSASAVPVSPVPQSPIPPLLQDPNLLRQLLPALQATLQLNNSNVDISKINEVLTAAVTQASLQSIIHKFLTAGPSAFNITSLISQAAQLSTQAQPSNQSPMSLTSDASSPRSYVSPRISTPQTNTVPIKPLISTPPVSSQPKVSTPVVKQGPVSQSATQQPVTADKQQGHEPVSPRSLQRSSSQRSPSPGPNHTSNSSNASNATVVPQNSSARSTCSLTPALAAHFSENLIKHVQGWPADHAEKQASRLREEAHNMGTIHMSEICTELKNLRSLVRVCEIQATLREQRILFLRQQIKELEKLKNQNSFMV

Compound: [O-][N+](C(C1=C(C(O)=C2)NC(C(C=C3)=CC=C3Cl)C4C1C=CC4)=C2Cl)=O
Experiment: melting temperature shift (compound 7 minus DMSO); higher = compound stabilises the protein
Settings: 10 µM
Protocol: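 Thermal proteome profiling (TMT mass spectrometry) in intact DAOY medulloblastoma cells or DAOY lysates treated with 10 µM compound 7 or DMSO, heated at 10 temperatures from 40.5 to 73.8 °C for 3 min. Melting curves were fitted with the Bioconductor TPP package, and the melting point difference between compound and vehicle is reported per protein (single curve per condition).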

[1] = system: intact DAOY cells, treatment time: 90 min, 37 °C
[2] = system: DAOY cell lysate, treatment time: 20 min, 4 °C

Row | Target | melting temperature shift [1] [°C] | melting temperature shift [2] [°C]
1 | NFIA (UniProt Q12857) | 5.98 | 
2 | C8ORF59 (UniProt Q8N0T1) | -0.573 | -0.609
3 | MYCBP2 (UniProt O75592) |  | 1.57
4 | UniProt Q0VGL1 |  | 0.672
5 | SLC30A1 (UniProt Q9Y6M5) |  | 2.48
6 | CTNNBL1 (UniProt Q8WYA6) | -0.511 | -0.484
7 | RMDN3 (UniProt Q96TC7) | 1.98 | 1.11
8 | SLMAP (UniProt Q14BN4) | -0.0974 | 1.23
9 | UniProt Q7Z4G1 | 1.3 | -2.03
10 | KIF1B (UniProt O60333) | -0.143 | -0.188
11 | TPT1 (UniProt P13693) | 0.638 | -0.801
12 | ADAR (UniProt P55265) | -0.932 | 0.321
13 | UniProt Q5T655 |  | 0.0361
14 | ISG15 (UniProt P05161) | -0.161 | -0.738
15 | UniProt P05976 | -0.0458 | 
16 | UniProt Q9NWA0 |  | -5.9
17 | UniProt Q14657 | 1.07 | 0.0971
18 | TRIM4 (UniProt Q9C037) | 1.05 | 
19 | FLNB (UniProt O75369) | -0.234 | -0.359
20 | BRD8 (UniProt Q9H0E9) | 1.35 | -0.515
21 | UHRF1BP1 (UniProt Q6BDS2) | -1.06 | -0.0859
22 | STK17B (UniProt O94768) | 1.51 | -1.85
23 | PCIF1 (UniProt Q9H4Z3) |  | -1.49

Row | Target | melting temperature shift [1] [°C] | melting temperature shift [2] [°C]
24 | PDPR (UniProt Q8NCN5) | 1.42 | 1.16
25 | SUZ12 (UniProt Q15022) | 0.136 | -0.36
26 | BRE (UniProt Q9NXR7) | -0.31 | -1.94
27 | UniProt P62891 | 1.57 | -1.27
28 | PEX11B (UniProt O96011) | 1.49 | 0.0274
29 | UniProt Q5TGZ0 | 1.3 | 
30 | ARPC5 (UniProt O15511) | 0.147 | -1.03
31 | AKAP11 (UniProt Q9UKA4) |  | -0.503
32 | TMEM126A (UniProt Q9H061) | -0.562 | 0.94
33 | TTC4 (UniProt O95801) | -0.162 | -0.121
34 | UniProt Q8N130 |  | 2.12
35 | SBNO1 (UniProt A3KN83) | -1.32 | -0.0491
36 | FGD4 (UniProt Q96M96) |  | -1.79
37 | AK4 (UniProt P27144) | -1.38 | -0.0989
38 | UniProt Q15836 |  | 1.68
39 | NQO1 (UniProt P15559) | -0.361 | 0.215
40 | UniProt Q9UKR5 | -1.22 | 
41 | UBE2O (UniProt Q9C0C9) | 0.594 | -0.414
42 | FUBP3 (UniProt Q96I24) | -0.48 | 0.933
43 | STOM (UniProt P27105) | -0.713 | 2.66
44 | ARPC1B (UniProt O15143) | -0.0284 | -1.49
45 | THUMPD1 (UniProt Q9NXG2) | 0.114 | -2.21
46 | PML (UniProt P29590) | -0.306 | 0.157

Row | Target | melting temperature shift [1] [°C] | melting temperature shift [2] [°C]
47 | KDM1A (UniProt O60341) | -0.13 | -0.0726
48 | EIF6 (UniProt P56537) | 0.815 | -0.375
49 | UniProt O75084 | -2.85 | 
50 | ESPL1 (UniProt Q14674) | -0.0991 | -0.0822
51 | EPPK1 (UniProt P58107) |  | 1.34
52 | MRPL45 (UniProt Q9BRJ2) | -0.215 | -0.191
53 | VPS52 (UniProt Q8N1B4) | -0.388 | -0.248
54 | PRKCSH (UniProt P14314) |  | 2.24
55 | UniProt P28062 | -0.805 | -2.62
56 | ARGLU1 (UniProt Q9NWB6) | -0.18 | 
57 | UBE2S (UniProt Q16763) | -0.373 | -0.268
58 | LMAN1 (UniProt P49257) | -0.117 | 1.45
59 | ALAD (UniProt P13716) |  | 3.24
60 | CHTOP (UniProt Q9Y3Y2) | 0.314 | 1.3
61 | PGM3 (UniProt O95394) | 0.643 | -0.558
62 | SF3B4 (UniProt Q15427) | 0.427 | -0.213
63 | STXBP2 (UniProt Q15833) | 0.24 | -0.619
64 | UniProt Q14627 | 0.115 | -0.258
65 | SH3GLB1 (UniProt Q9Y371) | 0.000563 | -1.12
66 | QSER1 (UniProt Q2KHR3) |  | -0.442
67 | DERL2 (UniProt Q9GZP9) | -2.66 | 0.924
68 | SH3GLB2 (UniProt Q9NR46) | 1.67 | -1.79
69 | UniProt P54707 | -1.12 | 

Rewritten as a markdown table: part of the list above.

| Row | Target | melting temperature shift [1] [°C] | melting temperature shift [2] [°C] |
| --- | --- | --- | --- |
| 41 | UBE2O (UniProt Q9C0C9) | 0.594 | -0.414 |
| 42 | FUBP3 (UniProt Q96I24) | -0.48 | 0.933 |
| 43 | STOM (UniProt P27105) | -0.713 | 2.66 |
| 44 | ARPC1B (UniProt O15143) | -0.0284 | -1.49 |
| 45 | THUMPD1 (UniProt Q9NXG2) | 0.114 | -2.21 |

Further records:

Row | Target | melting temperature shift [1] [°C] | melting temperature shift [2] [°C]
70 | NUS1 (UniProt Q96E22) | -0.642 | 0.0355
71 | UniProt Q8N3K9 |  | -0.835
72 | TRIM5 (UniProt Q9C035) | -1.49 | -1.25
73 | MRPS27 (UniProt Q92552) | -1.39 | -0.541
74 | UniProt P21675 |  | -1.59
75 | UniProt O14791 | -0.463 | 
76 | WAC (UniProt Q9BTA9) | -0.397 | -0.155
77 | UniProt Q9H5V8 | 0.898 | -0.561
78 | UniProt Q9BVA1 | -0.281 | -0.748
79 | NDC80 (UniProt O14777) | -1.38 | -0.618
80 | GPRC5A (UniProt Q8NFJ5) |  | 2.79
81 | UniProt Q9NYM9 | 0.299 | 1.03
82 | TP53RK (UniProt Q96S44) | -0.697 | -0.268
83 | MED14 (UniProt O60244) | 0.546 | -0.819
84 | UniProt Q9Y6X8 |  | -0.101
85 | UniProt P78540 | -2.11 | 1.52
86 | PRMT5 (UniProt O14744) | -1.53 | -0.347
87 | UniProt Q99576 | 2.02 | 
88 | BCL3 (UniProt P20749) | -1.29 | 
89 | ARFGEF1 (UniProt Q9Y6D6) | -0.789 | -0.822
90 | XRCC6 (UniProt P12956) | -0.657 | 0.247
91 | ISY1 (UniProt Q9ULR0) |  | 0.538
